Experimental data as given in PubChem BioAssay AID1347076 (National Center for Advancing Translational Sciences (NCATS), 2019).
About 13,000 (3.2%) of roughly 400,000 compounds were called active. The shares of active, inactive and inconclusive entries below differ from those in the screen. The call rests on the fitted dose curve; in most records, active means well fitted cell-killing curve with a large enough effect; inconclusive means small, poorly fitted or top-dose-only effect, or effect the other way; inactive means flat fitted curve, though single readings scatter. Where the call is inconclusive, the potency comes from a doubtful curve fit.

Assay: qHTS assay for MDR1-selective chemotherapeutics: Primary screen using the drug-selected MDR subline cells KB-V1; further: nearly all actives have a fitted effect of over 60% in size
Details: KB-V1 MDR cells viability, CellTiter-Glo, 72 h; activity change, negative = cytotoxicity: at 46.1 µM (top of the series)
How it was run: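 Cytotoxicity toward P-gp-expressing KB-V1 cells was determined as loss of CellTiter-Glo luminescence after 72 h at 37 degrees C. Compounds were tested in quantitative HTS format across a concentration range, with curves fitted to normalized data.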
On the % scale 0 is the no-effect control and ±100 the full control effect; potency means the concentration at half of the fitted maximal effect.

Row | SMILES | Potency | activity change, negative = cytotoxicity
1 | c1ccc(-c2nc3cc4ccccc4cc3[nH]2)nc1 | inconclusive: 8.2 µM [cytotoxic, partial curve, poor fit] | –
2 | Cc1nn(-c2ccccc2)c(N2CCCC2)c1/C=N/NC(=O)c1cc(-c2cccs2)nc2ccccc12 | – | inactive: 3.69%
3 | CN(C)CCn1c2c(c(SCC(=O)Nc3ccc4c(c3)OCCO4)nc1=O)CCC2 | inconclusive: 29.1 µM [rising, single point] | –
4 | COc1cccc(/C=N/Nc2cc(-n3nc(C)cc3-c3ccccc3)ncn2)c1O | inconclusive: 1.46 µM [cytotoxic, full curve, poor fit] | –
5 | COc1ccc(Cl)cc1N/C(N)=N/c1nc(C)cc(=O)[nH]1 | inconclusive: 23.1 µM [cytotoxic, single point] | –
6 | O=C(/C=C/c1ccc(Cl)cc1Cl)N1CCN(c2ccc([N+](=O)[O-])c(N3CCOCC3)c2)CC1 | inconclusive: 7.31 µM [cytotoxic, partial curve, poor fit] | –
7 | O=C1NN=C(c2ccc(Cl)cc2)CC1c1cccc(Cl)c1 (centres undefined) | inconclusive: 29.1 µM [cytotoxic, partial curve, poor fit] | –
8 | Cc1nc2nc(-c3ccccc3)cn2nc1C | active: 20.6 µM | –
9 | Cc1nn(C2CCS(=O)(=O)C2)c(C)c1CN(C)C(=O)c1cccc(Cl)c1 (centres undefined) | inconclusive: 20.6 µM [cytotoxic, single point] | –
10 | COc1cc(/C=C/C(=O)c2ccc(F)cc2)cc(OC)c1OC | inconclusive: 5.17 µM [cytotoxic, partial curve] | –
11 | COC(=O)C[C@H]1C=C[C@H](NC(=O)Nc2ccccc2)[C@@H](CO)O1 | – | inactive: -9.4%
12 | O=S(=O)(NCCc1nnc2ccc(SCc3cccnc3)nn12)c1ccccc1 | – | inactive: 7.18%
13 | O=C(c1cccc(F)c1)N1CCC(c2nc3ccccc3s2)CC1 | inconclusive: 18.4 µM [cytotoxic, single point] | –
14 | Cn1c(=O)c2c(nc(CN3CCc4ccccc4C3)n2Cc2ccccc2F)n(C)c1=O | inconclusive: 16.4 µM [cytotoxic, partial curve, poor fit] | –
15 | COc1cc2c(cc1OC)CN(CC(=O)Nc1ccccc1C(=O)NCc1ccccc1)CC2 | inconclusive: 5.8 µM [cytotoxic, partial curve] | –
16 | CCOC(=O)c1c(Nc2ccc(Cl)cc2)sc(/C=C2\C=Nc3ccccc32)c1O | inconclusive: 18.4 µM [cytotoxic, single point] | –
17 | CC(Nc1ccc(Br)cn1)c1cc(Cl)ccc1O (centres undefined) | – | inactive: -8.08%
18 | Cc1coc2cc3oc(=O)c(CCC(=O)NCC(=O)O)c(C)c3cc12 | – | inconclusive: 5.6%
19 | CCOc1ccc(CN(C)c2nc(-c3cccnc3)nc3ccccc23)cc1OC | inconclusive: 8.2 µM [cytotoxic, partial curve] | –
20 | COc1ccccc1OCCNC(=O)C(CCSC)NC(=O)c1ccccc1Cl (centres undefined) | inconclusive: 16.4 µM [cytotoxic, partial curve] | –
21 | COc1ccccc1Cc1c(-c2ccc(OC)c(OC)c2)nc2c(Cl)cc(C(F)(F)F)cn12 | inconclusive: 29.1 µM [rising, single point] | –
22 | Cc1ccc(S(=O)(=O)N2CCN(c3ncccn3)CC2)c(C)c1 | – | inactive: 7.85%
23 | OCCC1CN(Cc2cnc(-c3ccccc3)s2)CCN1C1CCCC1 (centres undefined) | inconclusive: 20.6 µM [cytotoxic, single point] | –

Single records, as listed above.
COc1ccccc1Cc1c(-c2ccc(OC)c(OC)c2)nc2c(Cl)cc(C(F)(F)F)cn12 as listed: Potency: inconclusive: 29.1 µM [rising, single point]
Cc1nn(C2CCS(=O)(=O)C2)c(C)c1CN(C)C(=O)c1cccc(Cl)c1 (centres undefined) as listed: Potency: inconclusive: 20.6 µM [cytotoxic, single point]

Additional compounds

Row | SMILES | Potency | activity change, negative = cytotoxicity
24 | O=C(Nc1ccc(S(=O)(=O)N2CCOCC2)cc1)c1ccccc1Br | – | inactive: 6.79%
25 | O=C(c1ccccc1)[C@@H]1[C@@H]2C(=O)N(c3ccc(F)cc3)C(=O)[C@@H]2C2CCCN21 (some centres undefined) | – | inactive: -24.1%
26 | C=CCOC(=O)C1=C(C)OC(N)=C(C#N)C1c1ccoc1 (centres undefined) | – | inactive: 20.7%
27 | Nn1c(Cc2ccccc2)nnc1Cc1ccccc1 | inconclusive: 11.6 µM [rising, partial curve, poor fit] | –
28 | Cn1c(=O)c(=O)n(C)c2cc(N3CCOCC3)c(NS(=O)(=O)c3ccc(F)c(Cl)c3)cc21 | inconclusive: 20.6 µM [rising, partial curve, poor fit] | –
29 | O=C(CSc1nnc(-c2cnccn2)n1Cc1ccco1)c1ccc2ccccc2c1 | inconclusive: 20.6 µM [cytotoxic, single point] | –
30 | O=C(NNC(=S)NC1CCCCC1)c1cccc(S(=O)(=O)Nc2ccccc2Cl)c1 | active: 20.6 µM | –
31 | Cc1ccc(Cn2c(C(CO)Nc3nc(-c4ccc(Cl)c([N+](=O)[O-])c4)cs3)nc3ccccc32)cc1 (centres undefined) | inconclusive: 29.1 µM [cytotoxic, single point] | –
32 | Cc1[nH]c2ccccc2c1CCN(Cc1cccs1)C(=S)Nc1ccccc1 | inconclusive: 8.2 µM [cytotoxic, partial curve] | –
33 | Cc1nc(-c2ccc3c(c2)OCCO3)cs1 | – | inactive: 8.94%
34 | Oc1c(Br)cc(Br)cc1C=Nc1ccc2[nH]ncc2c1 | inconclusive: 29.1 µM [rising, single point] | –
35 | Cc1cc(Cl)ccc1OCC(=O)N(Cc1ccco1)c1c(N)n(Cc2ccccc2)c(=O)[nH]c1=O | inconclusive: 29.1 µM [rising, single point] | –
36 | O=C(c1c(O)c2ccccc2oc1=O)C1CCCCC1 | active: 14.6 µM | –
37 | Fc1cccc(Cl)c1CSc1ccc2nnc(-c3ccccn3)n2n1 | inconclusive: 16.4 µM [cytotoxic, single point] | –
38 | COC(=O)CCc1sc(NC2CCCCC2)nc1-c1ccc(OC)cc1 | – | inactive: -33%
39 | CC1CCN(C(=O)CNC(=O)CNS(=O)(=O)c2ccccc2)CC1 | – | inactive: 0%
40 | COc1ccc(S(=O)(=O)N2CCCCCC2)cc1C(=O)N1CCCC(C(F)(F)F)C1 (centres undefined) | inconclusive: 14.6 µM [cytotoxic, partial curve] | –
41 | COc1ccccc1Cc1c(-c2cccc(Br)c2)nc2ccc(Br)cn12 | – | inactive: 0%
42 | CSc1nc2ccc(N3C(=O)C4CCCCC4C3=O)cc2s1 (centres undefined) | inconclusive: 18.4 µM [cytotoxic, single point] | –
43 | CCOC(=O)c1c2c3c(c(Cl)ccc3[nH]c1=O)C(=O)c1ccccc1-2 | – | inactive: -27.1%
44 | Cc1cc(Oc2ccc(N)cn2)cc(C)c1Cl | – | inactive: -0.475%
45 | Cc1ccc(SC(C)C(=O)NC(N)=O)c(C)c1 (centres undefined) | inconclusive: 29.1 µM [rising, single point] | –
46 | Cc1cc2[nH]c(=O)c(=O)[nH]c2cc1S(=O)(=O)N1CCN(c2cccc(C)c2C)CC1 | inactive | –

A different layout for some results above:
Row	SMILES	Potency	activity change, negative = cytotoxicity
26	C=CCOC(=O)C1=C(C)OC(N)=C(C#N)C1c1ccoc1 (centres undefined)	–	inactive: 20.7%
27	Nn1c(Cc2ccccc2)nnc1Cc1ccccc1	inconclusive: 11.6 µM [rising, partial curve, poor fit]	–
28	Cn1c(=O)c(=O)n(C)c2cc(N3CCOCC3)c(NS(=O)(=O)c3ccc(F)c(Cl)c3)cc21	inconclusive: 20.6 µM [rising, partial curve, poor fit]	–
29	O=C(CSc1nnc(-c2cnccn2)n1Cc1ccco1)c1ccc2ccccc2c1	inconclusive: 20.6 µM [cytotoxic, single point]	–
30	O=C(NNC(=S)NC1CCCCC1)c1cccc(S(=O)(=O)Nc2ccccc2Cl)c1	active: 20.6 µM	–
31	Cc1ccc(Cn2c(C(CO)Nc3nc(-c4ccc(Cl)c([N+](=O)[O-])c4)cs3)nc3ccccc32)cc1 (centres undefined)	inconclusive: 29.1 µM [cytotoxic, single point]	–
32	Cc1[nH]c2ccccc2c1CCN(Cc1cccs1)C(=S)Nc1ccccc1	inconclusive: 8.2 µM [cytotoxic, partial curve]	–
33	Cc1nc(-c2ccc3c(c2)OCCO3)cs1	–	inactive: 8.94%
34	Oc1c(Br)cc(Br)cc1C=Nc1ccc2[nH]ncc2c1	inconclusive: 29.1 µM [rising, single point]	–
35	Cc1cc(Cl)ccc1OCC(=O)N(Cc1ccco1)c1c(N)n(Cc2ccccc2)c(=O)[nH]c1=O	inconclusive: 29.1 µM [rising, single point]	–
36	O=C(c1c(O)c2ccccc2oc1=O)C1CCCCC1	active: 14.6 µM	–
37	Fc1cccc(Cl)c1CSc1ccc2nnc(-c3ccccn3)n2n1	inconclusive: 16.4 µM [cytotoxic, single point]	–
38	COC(=O)CCc1sc(NC2CCCCC2)nc1-c1ccc(OC)cc1	–	inactive: -33%
39	CC1CCN(C(=O)CNC(=O)CNS(=O)(=O)c2ccccc2)CC1	–	inactive: 0%
40	COc1ccc(S(=O)(=O)N2CCCCCC2)cc1C(=O)N1CCCC(C(F)(F)F)C1 (centres undefined)	inconclusive: 14.6 µM [cytotoxic, partial curve]	–
41	COc1ccccc1Cc1c(-c2cccc(Br)c2)nc2ccc(Br)cn12	–	inactive: 0%
42	CSc1nc2ccc(N3C(=O)C4CCCCC4C3=O)cc2s1 (centres undefined)	inconclusive: 18.4 µM [cytotoxic, single point]	–
43	CCOC(=O)c1c2c3c(c(Cl)ccc3[nH]c1=O)C(=O)c1ccccc1-2	–	inactive: -27.1%
44	Cc1cc(Oc2ccc(N)cn2)cc(C)c1Cl	–	inactive: -0.475%
45	Cc1ccc(SC(C)C(=O)NC(N)=O)c(C)c1 (centres undefined)	inconclusive: 29.1 µM [rising, single point]	–
46	Cc1cc2[nH]c(=O)c(=O)[nH]c2cc1S(=O)(=O)N1CCN(c2cccc(C)c2C)CC1	inactive	–

Remaining list, next part:

Row | SMILES | Potency | activity change, negative = cytotoxicity
47 | CCN(CC)c1ccc(C(=O)c2ccccc2C(=O)O)c(O)c1 | inconclusive: 29.1 µM [rising, single point] | –
48 | CC(=O)Nc1ccc(NC(=O)c2ccc(CSc3ccccc3)o2)cc1 | inconclusive: 11.6 µM [cytotoxic, partial curve] | –
49 | O=C(/C=C/c1ccc(O)c(O)c1)c1ccccc1O | inconclusive: 23.1 µM [cytotoxic, partial curve] | –
50 | Cc1c([N+](=O)[O-])nnn1-c1cc(Cl)cc(Cl)c1 | inconclusive: 23.1 µM [cytotoxic, single point] | –
51 | CC(c1ccccc1)n1c(SCC(=O)N2CC(=O)Nc3ccccc32)nc2ccccc2c1=O (centres undefined) | inconclusive: 18.4 µM [cytotoxic, single point] | –
52 | CCc1nnc(NC(=O)C2Cc3ccccc3CN2S(=O)(=O)c2cccs2)s1 (centres undefined) | inconclusive: 4.61 µM [cytotoxic, partial curve] | –
53 | CCSc1ncc(Cl)c(C(=O)Nc2ccc(S(N)(=O)=O)cc2)n1 | – | inactive: -0.944%
54 | COc1ccccc1-c1nnc(SCC(=O)Nc2cc(C)on2)o1 | inconclusive: 29.1 µM [cytotoxic, single point] | –
55 | Cc1ccc(NC(=O)c2nnn(-c3ccc4c(c3)OCCO4)c2N)cc1 | inconclusive: 9.2 µM [cytotoxic, partial curve] | –
56 | CN(C)c1nc(Cl)nc2c1nc(Cl)n2C1CCCCO1 (centres undefined) | inconclusive: 29.1 µM [cytotoxic, single point] | –
57 | Brc1ccccc1C1N=C(c2ccccc2)NO1 (centres undefined) | – | inactive: 5.43%
58 | C=CC[C@H](CC(=O)N(CCO)Cc1ccccc1)C(=O)N[C@H](COC(=O)[C@H](CC=C)CC(=O)OC(C)(C)C)Cc1ccccc1 | – | inactive: -15.8%
59 | Nc1ccc2oc(=O)c3ccccc3c2c1 | inconclusive: 23.1 µM [cytotoxic, partial curve] | –
60 | N#Cc1c(C(F)(F)F)cc(-c2ccccc2)[nH]c1=O | inconclusive: 20.6 µM [cytotoxic, single point] | –
61 | Cc1ccccc1NC(=O)CSc1nc(COc2ccccc2)nc2ccccc12 | inconclusive: 3.26 µM [cytotoxic, partial curve] | –
62 | NC(=O)CSc1nnc(-c2cccc(S(=O)(=O)N3CCOCC3)c2)n1C1CCCCCC1 | inconclusive: 4.61 µM [rising, partial curve] | –
63 | CC1=CC(C)(C)N(S(=O)(=O)c2ccc(C)cc2)c2cc(C)ccc21 | active: 6.51 µM | –
64 | CN(C)CC1CCC/C(=C\c2ccc(OC(=O)/C=C/c3ccccc3)cc2)C1=O (centres undefined) | inconclusive: 3.66 µM [cytotoxic, full curve, poor fit] | –
65 | CSc1ncccc1C(=O)Nc1nc2ccc(F)cc2s1 | inconclusive: 20.6 µM [cytotoxic, single point] | –
66 | CCN(CC)CCOC(=O)c1ccc(N/C=C(/C#N)c2nc(-c3ccc4c(c3)OCO4)cs2)cc1 | – | inactive: -8.09%
67 | Cc1ccc(S(=O)(=O)N2C3CCCCC3O[C@H]2CC(=O)c2ccc(F)cc2)cc1 (some centres undefined) | inconclusive: 29.1 µM [cytotoxic, partial curve, poor fit] | –
68 | COc1cccc(C2c3c(-c4ccccc4O)n[nH]c3C(=O)N2CCc2ccc(OC)c(OC)c2)c1 (centres undefined) | – | inactive: -2.76%
69 | O=C(CSc1ncc(CO)n1Cc1ccccc1)Nc1ccc(C(F)(F)F)cc1 | inconclusive: 14.6 µM [cytotoxic, partial curve, poor fit] | –
